Source: PubChem BioAssay AID1347075 (National Center for Advancing Translational Sciences (NCATS), 2019)
Out of some 400,000 compounds screened, about 5,500 (1.4%) were called active. This list was built around the results that the source calls inconclusive (neither active nor inactive); the mix of calls is not that of the screen. Calls follow the shape of the dose curve; as a rule, active = well fitted cell-killing curve with a large enough effect; inconclusive = small, poorly fitted or top-dose-only effect, or effect the other way; inactive = flat fitted curve, though single readings scatter. Potencies beside an inconclusive call are fits to weak or partial responses and may not hold up.

assay: qHTS assay for MDR1-selective chemotherapeutics: Primary screen using the parental adenocarcinoma cell KB-3-1; settings: KB-3-1 viability, CellTiter-Glo ATP luminescence, 72 h; activity change, negative = cytotoxic: at 46.1 µM (top of the series); also: nearly all actives have a fitted effect of over 60% in size
Method in brief: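 Multi-concentration cytotoxicity screen in KB-3-1 cells grown in DMEM lacking phenol red with 10% FBS. After 72 h at 37 °C with compound, ATP-dependent luminescence was recorded.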
% is scaled to controls: 0 for no effect and ±100 for the full control effect; potency is read from the fitted curve at half-maximal effect.

SMILES	Potency	activity change, negative = cytotoxic
CC(=O)Nc1ccccc1OCC(=O)N(Cc1ccccc1)C(C)C	inconclusive: 20.6 µM [cytotoxic, partial curve, poor fit]	
COC(=O)C1=C(C)N(C(C)C)C(=O)C1(NC(=O)C1CCCCC1)C(F)(F)F (stereo not drawn)		inactive: 2.06%
CCOc1ccc(S(=O)(=O)NCc2ccncc2)cc1NC(=O)c1ccccc1F	inconclusive: 0.651 µM [cytotoxic, full curve, poor fit]	
Cc1cccc(CNC(=O)C2CCN(S(=O)(=O)c3ccc4c(c3)CCCN4C(=O)C3CCC3)CC2)c1	inconclusive: 16.4 µM [cytotoxic, single point]	
CCCCOP(=O)(c1ccc(N(C)C)cc1)C(Nc1ccccc1)c1ccccc1 (stereo not drawn)	inconclusive: 29.1 µM [cytotoxic, single point]	
N#Cc1c(N2CCSCC2)nsc1-c1ccccc1Cl	active: 3.66 µM	
CCCc1cnc2c(c1SCC(=O)Nc1ccccc1F)c(=O)n(C)c(=O)n2C		inactive: -12.2%
O=C(Nc1ccc(Cl)c(Cl)c1)c1ccc(Cn2c(=O)[nH]c3ccsc3c2=O)cc1	inconclusive: 23.1 µM [cytotoxic, single point]	
CC(=O)OC1CCC2(C)C(=CCC3C4CC(=O)N(O)C(=O)C4(C)CCC32)C1 (stereo not drawn)	inconclusive: 29.1 µM [cytotoxic, single point]	
Cc1ccc(S(=O)(=O)c2nc(-c3ccccc3Br)oc2N(C)C)cc1	inconclusive: 18.4 µM [cytotoxic, partial curve, poor fit]	
Cc1ccc(NC(=O)C2CC(=O)N(c3ccc4c(c3)OCCO4)C2)cc1S(=O)(=O)N(C)C (stereo not drawn)		inconclusive: 12.9%
COc1ccc(C2C(C#N)=C(N)Oc3c2ccc2cccnc32)cc1OC (stereo not drawn)	active: 2.59 µM	
O=C(CN1CCN(S(=O)(=O)c2ccc(F)c(Cl)c2)CC1)N1CCc2ccccc21	inconclusive: 23.1 µM [cytotoxic, single point]	
Cc1nc2ccc(S(=O)(=O)Nc3cc(-c4nc5cccnc5s4)ccc3C)cc2s1	inconclusive: 23.1 µM [cytotoxic, single point]	
CCOC(=O)CS(=O)(=O)c1nc(-c2ccc(F)cc2)cc(C(F)(F)F)n1	active: 3.26 µM	
Cc1cc(NC(=O)COc2ccccc2C#N)no1		inactive: 4.1%
CNc1snc(C)c1C(=O)OCC(=O)N(C)Cc1ccccc1	inconclusive: 32.6 µM [cytotoxic, partial curve, poor fit]	
O=C(CSc1nnnn1-c1ccccc1F)NNC(=O)c1ccco1		inactive: 1.38%
COc1cc(Nc2ncc3c(n2)CCN(Cc2cc(F)cc(F)c2)C3)cc(OC)c1	inconclusive: 16.4 µM [cytotoxic, partial curve]	
Cc1ccc(C)c(N2CCN(S(=O)(=O)c3ccc4c(c3)OCCO4)CC2)c1	inconclusive: 23.1 µM [cytotoxic, partial curve]	
N#C/C(=C(/O)CCl)c1nc2c(s1)CCc1ccccc1-2	active: 4.11 µM	
COc1ccccc1NC(=O)CSc1oc(-c2ccc(F)cc2)nc1S(=O)(=O)c1ccc(Br)cc1		inactive: 25%
CC(=O)OC[C@@H]1CN(Cc2cccc(C(F)(F)F)c2)C[C@H](n2cnc3c(NCc4ccco4)ncnc32)O1		inactive: 0%

SMILES	Potency	activity change, negative = cytotoxic
O=C(c1ccc(Oc2ccc(Cl)cc2)c([N+](=O)[O-])c1)N1CCCC1		inactive: -4.08%
COc1ccc(Nc2ccnc(Nc3ccc(OC)cc3)n2)cc1	inconclusive: 9.2 µM [cytotoxic, partial curve, poor fit]	
CCOCc1cnc(C)nc1NCC(=O)c1c(C)[nH]c2cc(C)ccc12	active: 16.4 µM	
COc1cccc(NC(=O)C2(C)CCN2Cc2ccccc2Cl)c1 (stereo not drawn)	inconclusive: 29.1 µM [cytotoxic, single point]	
CCn1c(=O)c2cc(C(=O)NC(C)C)sc2c2ccccc21	inconclusive: 11.6 µM [cytotoxic, single point]	
COc1ccccc1Cc1c(C2CCCCC2)nc2ccc(C)cn12		inactive: -14.1%
O=C1[C@@H](c2ccccc2)[C@@H](c2ccccc2)N1c1cccnc1	inconclusive: 29.1 µM [cytotoxic, single point]	
Cc1ccc(C)c(-n2c3nc(=O)[nH]c(=O)c-3cc3cc([N+](=O)[O-])ccc32)c1	active: 23.1 µM	
Cc1ccc2oc(=O)n(Cc3ccccc3)c2c1		inactive: 1.65%
COc1cc2ncnc(N(C)Cc3csc(C)n3)c2cc1-c1ccc2c(c1)OCO2	inconclusive: 32.6 µM [cytotoxic, single point]	
Cc1ccccc1CNC(=O)c1ccc2[nH]c(C)c(C)c2c1		inactive: 1.59%
COc1cccc(CNC(=O)c2nnn(CC(=O)Nc3ccc(Br)cc3)c2N)c1		inactive: 1.44%
Cc1noc(C)c1S(=O)(=O)Nc1ccc2c(c1)C(=O)N([C@@H](C)CO)C[C@H](C)[C@@H](CN(C)Cc1ccc(C(F)(F)F)cc1)OCCCC[C@H](C)O2	inconclusive: 29.1 µM [cytotoxic, single point]	
O=C(CSc1n[nH]c(-c2ccccc2O)n1)N1CCCc2ccccc21	inconclusive: 18.4 µM [cytotoxic, single point]	
CC(C)CC1C(=O)N(Cc2cn(CC3CCCCC3)nn2)CCS(=O)(=O)N1Cc1ccc(-c2ccc(Cl)c(Cl)c2)cc1 (stereo not drawn)	inconclusive: 29.1 µM [cytotoxic, single point]	
O=C1NC(=S)NC(=O)C1Nc1ccc(Cl)cc1	inconclusive: 18.4 µM [cytotoxic, partial curve, poor fit]	
CCOC(=O)c1c(C)n(C)c2cc(Br)c(C(=O)OC)cc12	inconclusive: 29.1 µM [cytotoxic, single point]	
COc1ccc(COc2cc(-c3cccc(OC)c3)nc3ccc(NC(=O)c4ccc(OC)cc4)cc23)cc1	active: 4.11 µM	
c1ccc(-c2csc(NC3=NCCCCC3)n2)cc1		inactive: -11.6%
O=C(Cn1nnc(-c2ccc(F)cc2)n1)Nc1cccc(S(=O)(=O)N2CCCC2)c1	inconclusive: 14.6 µM [cytotoxic, partial curve]	
COc1ccc(C(=O)Nc2ccc3c(c2)nc(CCNC(=O)c2ccco2)n3C)cc1		inconclusive: -0.942%
Cn1c(COc2ccccc2)nnc1SCCC(=O)Nc1ccccc1		inactive: 2.4%
NS(=O)(=O)c1ccc(NC(=S)Nc2ccn(Cc3cccc4ccccc34)n2)cc1	inconclusive: 29.1 µM [cytotoxic, single point]	

SMILES	Potency	activity change, negative = cytotoxic
COc1ccc(NCC(=O)N/N=C/C=C\c2ccccc2)cc1		inactive: 3.56%
COc1ccc(-c2cc(-c3n[nH]c(=S)n3-c3cc(OC)ccc3OC)[nH]n2)cc1	inconclusive: 20.6 µM [rising, single point]	
Cc1cc(C)cc(OCC(=O)NNC(=S)NC(=O)C2CC2)c1	inconclusive: 20.6 µM [cytotoxic, single point]	
Clc1ccc(CN2C3=NCCCN3c3ccccc32)cc1	inconclusive: 18.4 µM [cytotoxic, single point]	
COc1ccc(NC(=O)C(c2ccc(OC)cc2)n2c(=O)c(-c3ccco3)nc3ccccc32)cc1 (stereo not drawn)		inactive: -15%
CCOc1ncnc2c1oc1nc(CC(C)C)c3c(c12)CC(C)(C)OC3	inconclusive: 23.1 µM [cytotoxic, partial curve, poor fit]	
O=C1C2C3C=CC(C3=C(c3ccccc3)c3ccccc3)C2C(=O)N1Cc1ccccc1 (stereo not drawn)	inconclusive: 29.1 µM [cytotoxic, single point]	
Cc1nc(NC(=O)c2cccs2)ccc1Br		inactive: 6.9%
Cc1cccc(C)c1NC(=O)COC(=O)c1ccccc1Nc1ccccc1		inactive: 6.46%
Cc1ccc(NC(=O)c2cc(=O)c3ccccc3o2)cc1S(=O)(=O)N1CCCCC1		inconclusive: 0.588%
Cc1ccccc1C(=O)N1CCN(c2ccc(NC(=S)NC(=O)c3ccco3)cc2)CC1	inconclusive: 25.9 µM [cytotoxic, partial curve, poor fit]	
CC(=O)Nc1nnc(S(=O)(=O)N2CCN(c3ccc([N+](=O)[O-])cc3Cl)CC2)s1	inconclusive: 29.1 µM [cytotoxic, single point]	
CN(C)CCNCCCNc1c2ccccc2nc2cccc([N+](=O)[O-])c12	active: 0.0164 µM	
CCCc1cc(=O)n2c([nH]c3ccccc32)c1C#N	inconclusive: 18.4 µM [cytotoxic, single point]	
Cc1ncc(CN2CCCC(C(=O)Nc3ccc(-c4cccc(F)c4)cc3)C2)n1C (stereo not drawn)	inconclusive: 16.4 µM [cytotoxic, single point]	
O=C(Cn1c(=O)n(Cc2nc(-c3ccccc3)no2)c(=O)c2cc3c(cc21)OCO3)Nc1cccc(C(F)(F)F)c1	inconclusive: 32.6 µM [cytotoxic, single point]	
NNC(=O)CC1NCCN(Cc2ccccc2)C1=O (stereo not drawn)	inconclusive: 0.366 µM [rising, partial curve]	
CN(c1ccccc1)S(=O)(=O)c1ccc(Cl)c(C(=O)NCCc2c[nH]c3ccccc23)c1	inconclusive: 16.4 µM [cytotoxic, partial curve]	
N#CCSc1nc2cc(C(=O)N3CCC(C(N)=O)CC3)ccc2c2nc3ccccc3n12	inconclusive: 29.1 µM [cytotoxic, single point]	
O=S(=O)(c1ccc2c(c1)CCC2)N1CCN(c2nc(-c3ccccc3)nc3ccccc23)CC1		inactive: 23.1%
Cc1ccc(-c2nc3ccccc3[nH]2)cc1NC(=O)c1sc2cc(Cl)ccc2c1Cl		inactive: 4.06%
COC(=O)c1c(C)[nH]c(C(=O)C(C)OC(=O)C2CC(=O)N(c3ccc(C)cc3)C2)c1C (stereo not drawn)	inconclusive: 3.66 µM [cytotoxic, full curve, poor fit]	

For convenience, some entries already given:
SMILES	Potency	activity change, negative = cytotoxic
CCOc1ncnc2c1oc1nc(CC(C)C)c3c(c12)CC(C)(C)OC3	inconclusive: 23.1 µM [cytotoxic, partial curve, poor fit]	
O=C1C2C3C=CC(C3=C(c3ccccc3)c3ccccc3)C2C(=O)N1Cc1ccccc1 (stereo not drawn)	inconclusive: 29.1 µM [cytotoxic, single point]	
Cc1nc(NC(=O)c2cccs2)ccc1Br		inactive: 6.9%
